Source: patent publication US8501715B2, “Oxidized lipids and uses thereof in the treatment of inflammatory diseases and disorders” (Vascular Biogenics Ltd., priority 2003, dated 2013)

Columns and labels:
[1] = Body weight of Apo-E KO mice; assay type: in vivo, mouse
[2] = Plasma/serum cholesterol and triglyceride levels in Apo-E KO mice; assay type: in vivo, mouse
[3] = test system: monocytes, dendritic, T and B cell lines; test: 3H-CI-201 uptake in immune cell lines; assay type: cell-based; settings: radioactive levels only at the 24 hours time point compared to control cells
[4] = i.p. immunization x4 every 2 weeks (ALLE 150 μg/mouse coupled to PPD; PPD alone), End
[5] = nasal 10 μg/mouse L-ALLE every other day for 3 days, End
[6] = nasal 10 μg/mouse L-ALLE every other day for 3 days, Time 0
[7] = oral 10 μg/mouse L-ALLE+D-ALLE every other day for 5 days, End
[8] = oral 1 mg/mouse L-ALLE every other day for 5 days, End
[9] = oral 1 mg/mouse L-ALLE+D-ALLE every other day for 5 days, End
[10] = i.p. immunization x4 every 2 weeks (ALLE 150 μg/mouse coupled to PPD; PPD alone), Time 0
[11] = oral 10 μg/mouse L-ALLE+D-ALLE every other day for 5 days, Time 0
[12] = oral 1 mg/mouse L-ALLE every other day for 5 days, Time 0
[13] = oral 1 mg/mouse L-ALLE+D-ALLE every other day for 5 days, Time 0
[14] = oral 0.1 μg/dose, 3 monthly sets of 5 administrations, END (12 weeks)
[15] = oral 1 μg/dose, 3 monthly sets of 5 administrations, END (12 weeks)
[16] = oral 10 μg/dose, 3 monthly sets of 5 administrations, END (12 weeks)
[17] = oral 0.1 μg/dose, 3 monthly sets of 5 administrations, T = 0
[18] = oral 1 μg/dose, 3 monthly sets of 5 administrations, T = 0
[19] = oral 10 μg/dose, 3 monthly sets of 5 administrations, 26-28 weeks old mice, T = 0
[20] = oral 0.2 mg/mouse every other day for 5 days, End
[21] = oral 1 mg/mouse every other day for 5 days, End
[22] = oral 0.2 mg/mouse every other day for 5 days, time point 0
[23] = oral 1 mg/mouse every other day for 5 days, time point 0
[24] = oral 5 mg/mouse every other day for 5 days, End
[25] = oral 5 mg/mouse every other day for 5 days, time point 0
[26] = oral 1 mg/mouse, 5 feedings every other day every 4 weeks over 12 weeks, 24.5 week old mice, End
[27] = oral 1 mg/mouse, 5 feedings every other day every 4 weeks over 12 weeks, 24.5 week old mice, time point 0

## 2,5′-Aldehyde Lecithin Ether [ALLE]
[1]; [4]
  Weight: 20.5 ± 0.5 grams
[1]; i.p. immunization x4 every 2 weeks (ALLE 150 μg/mouse coupled to PPD; PPD alone), Time 0 (prior to immunization)
  Weight: 17.3 ± 0.5 grams
[1]; [5]
  Weight: 24.2 ± 0.2 grams
[1]; [6]
  Weight: 21.1 ± 0.7 grams
[1]; [7]
  Weight: 24.1 ± 0.8 grams
[1]; oral 10 μg/mouse L-ALLE+D-ALLE every other day for 5 days, Time 0 (prior to feeding)
  Weight: 21.1 ± 0.8 grams
[1]; [8]
  Weight: 23.3 ± 1.1 grams
[1]; oral 1 mg/mouse L-ALLE every other day for 5 days, Time 0 (prior to feeding)
  Weight: 21.1 ± 0.8 grams
[1]; [9]
  Weight: 27.4 ± 0.5 grams
[1]; oral 1 mg/mouse L-ALLE+D-ALLE every other day for 5 days, Time 0 (prior to feeding)
  Weight: 21.5 ± 0.8 grams
[2]; [4]
  Chol (plasma cholesterol): 299 ± 18 mg/dL
  TG (plasma triglycerides): 57 ± 3 mg/dL
[2]; [10]
  Chol (plasma cholesterol): 435 ± 47 mg/dL
  TG (plasma triglycerides): 118 ± 9 mg/dL
[2]; [5]
  Chol (plasma cholesterol): 328 ± 18 mg/dL
  TG (plasma triglycerides): 74 ± 6 mg/dL
[2]; [6]
  Chol (plasma cholesterol): 353 ± 31 mg/dL
  TG (plasma triglycerides): 143 mg/dL
[2]; [7]
  Chol (serum cholesterol): 321 ± 15 mg/dL
  TG (serum triglycerides): 93 ± 6 mg/dL
[2]; [11]
  Chol (serum cholesterol): 378 ± 31 mg/dL
  TG (serum triglycerides): 90 mg/dL
[2]; [8]
  Chol (plasma cholesterol): 418 ± 43 mg/dL
  TG (plasma triglycerides): 82 ± 7 mg/dL
[2]; [12]
  Chol (plasma cholesterol): 362 ± 27 mg/dL
  TG (plasma triglycerides): 144 mg/dL
[2]; [9]
  Chol (serum cholesterol): 249 ± 24 mg/dL
  TG (serum triglycerides): 78 ± 8 mg/dL
[2]; [13]
  Chol (serum cholesterol): 379 ± 23 mg/dL
  TG (serum triglycerides): 98 mg/dL

## CCCCCCCCCCCCCCCCOC[C@H](COP(=O)([O-])OCC[N+](C)(C)C)OCCCCC(=O)O [CI-201, 1-Hexadecyl-2-(5′-Carboxy-butyl)-sn-glycero-3-phosphocholine]
[1]; oral 0.1 μg/dose, 3 monthly sets of 5 administrations, 26-28 weeks old mice, T = 0
  Weight: 26.6 ± 0.4 g
[1]; [14]
  Weight: 28.8 ± 0.7 g
[1]; oral 1 μg/dose, 3 monthly sets of 5 administrations, 26-28 weeks old mice, T = 0
  Weight: 26.4 ± 0.4 g
[1]; [15]
  Weight: 29.0 ± 0.4 g
[1]; oral 10 μg/dose, 3 monthly sets of 5 administrations every other day, 26-28 weeks old mice, T = 0
  Weight: 26.6 ± 0.5 g
[1]; [16]
  Weight: 29.6 ± 0.5 g
[3]
  radiolabeled CI-201 incorporation in T cells: mild increase
[2]; [14]
  Cholesterol (plasma): 406 ± 39 mg/dL
  Triglyceride (plasma): 107 ± 13 mg/dL
[2]; [17]
  Cholesterol (plasma): 313 ± 14 mg/dL
  Triglyceride (plasma): 87 ± 6 mg/dL
[2]; [15]
  Cholesterol (plasma): 382 ± 24 mg/dL
  Triglyceride (plasma): 96 ± 8 mg/dL
[2]; [18]
  Cholesterol (plasma): 323 ± 20 mg/dL
  Triglyceride (plasma): 87 ± 4 mg/dL
[2]; [19]
  Cholesterol (plasma): 321 ± 23 mg/dL
  Triglyceride (plasma): 88 ± 4 mg/dL
[2]; [16]
  Cholesterol (plasma): 344 ± 25 mg/dL
  Triglyceride (plasma): 76 ± 4 mg/dL

## C=CCCCCO[C@H](COCCCCCCCCCCCCCCCC)COP(=O)([O-])OCC[N+](C)(C)C [Compound V, 1-Hexadecyl-2-(5′-hexenyl)-sn-glycero-3-phosphocholine]
[1]; oral 0.1 μg/dose, 3 monthly sets of 5 administrations, 23-26 weeks old mice, T = 0
  Weight: 26.1 ± 0.7 g
[1]; [14]
  Weight: 28.1 ± 0.5 g
[1]; [20]
  Weight: 20.1 ± 0.3 grams
[1]; oral 0.2 mg/mouse every other day for 5 days, female 8-10 week old mice, time point 0
  Weight: 18.5 ± 0.3 grams
[1]; [21]
  Weight: 19.8 ± 0.2 grams
[1]; oral 1 mg/mouse every other day for 5 days, female 8-10 week old mice, time point 0
  Weight: 18.3 ± 0.3 grams
[1]; oral 5 mg/mouse every other day for 5 days, End (8 weeks after last administration)
  Weight: 19.8 ± 0.3 grams
[1]; oral 5 mg/mouse every other day for 5 days, female 8-10 week old mice, time point 0
  Weight: 18.0 ± 0.3 grams
[2]; [14]
  Cholesterol: 292 ± 16 mg/DI
  Triglyceride: 81 ± 3 mg/DI
[2]; [17]
  Cholesterol: 401 ± 27 mg/DI
  Triglyceride: 128 ± 8 mg/DI
[2]; [20]
  Cholesterol (serum): 409 ± 8 mg/dL
[2]; oral 0.2 mg/mouse every other day for 5 days, End, P< 0.001 versus PBS
  Triglyceride (serum): 102 ± 5 mg/dL
[2]; [22]
  Cholesterol (serum): 214 ± 21 mg/dL
  Triglyceride (serum): 50 ± 7 mg/dL
[2]; [21]
  Cholesterol (serum): 398 ± 23 mg/dL
[2]; oral 1 mg/mouse every other day for 5 days, End, P< 0.05 versus PBS
  Triglyceride (serum): 91 ± 4 mg/dL
[2]; [23]
  Cholesterol (serum): 198 ± 23 mg/dL
  Triglyceride (serum): 52 ± 5 mg/dL
[2]; [24]
  Cholesterol (serum): 431 ± 23 mg/dL
  Triglyceride (serum): 80 ± 8 mg/dL
[2]; [25]
  Cholesterol (serum): 210 ± 18 mg/dL
  Triglyceride (serum): 52 ± 4 mg/dL

## CCCCCCCCCCCCCCCCOC[C@H](COP(=O)([O-])OCC[N+](C)(C)C)OCCCCC=O [D-ALLE, 1-hexadecyl-2-(5′-oxo-pentanyl)-sn-glycero-3-phosphocholine]
[1]; [26]
  Weight: 30.4 ± 0.8 grams
[1]; [27]
  Weight: 29.8 ± 0.7 grams
[2]; [26]
  Cholesterol (plasma): 394 ± 15 mg/dL
  Triglyceride (plasma): 94 ± 4 mg/dL
[2]; [27]
  Cholesterol (plasma): 409 ± 28 mg/dL
  Triglyceride (plasma): 63 ± 4 mg/dL

## CCCCCCCCCCCCCCCCOC[C@@H](COP(=O)([O-])OCC[N+](C)(C)C)OCCCCC=O [L-ALLE, 3-hexadecyl-2-(5′-oxo-pentanyl)-sn-glycero-1-phosphocholine]
[1]; [26]
  Weight: 29.7 ± 0.5 grams
[1]; [27]
  Weight: 29 ± 0.6 grams
[2]; [26]
  Cholesterol (plasma): 391 ± 18 mg/dL
  Triglyceride (plasma): 83 ± 4 mg/dL
[2]; [27]
  Cholesterol (plasma): 413 ± 23 mg/dL
  Triglyceride (plasma): 63 ± 8 mg/dL
